Reference: publication PMC12638251, “Uridine-sensitized screening identifies demethoxy-coenzyme Q and NUDT5 as regulators of nucleotide synthesis” (Nature Metabolism, 2025)
Results are given in words; binding and its absence hold for the method and conditions named. Some entries that bind do so weakly or less than the wild type.

By UniProt entry, the sequences of proteins in these tests, tags left out. Residues count along the entry.
UniProt Q8CIH9, residues 12-517: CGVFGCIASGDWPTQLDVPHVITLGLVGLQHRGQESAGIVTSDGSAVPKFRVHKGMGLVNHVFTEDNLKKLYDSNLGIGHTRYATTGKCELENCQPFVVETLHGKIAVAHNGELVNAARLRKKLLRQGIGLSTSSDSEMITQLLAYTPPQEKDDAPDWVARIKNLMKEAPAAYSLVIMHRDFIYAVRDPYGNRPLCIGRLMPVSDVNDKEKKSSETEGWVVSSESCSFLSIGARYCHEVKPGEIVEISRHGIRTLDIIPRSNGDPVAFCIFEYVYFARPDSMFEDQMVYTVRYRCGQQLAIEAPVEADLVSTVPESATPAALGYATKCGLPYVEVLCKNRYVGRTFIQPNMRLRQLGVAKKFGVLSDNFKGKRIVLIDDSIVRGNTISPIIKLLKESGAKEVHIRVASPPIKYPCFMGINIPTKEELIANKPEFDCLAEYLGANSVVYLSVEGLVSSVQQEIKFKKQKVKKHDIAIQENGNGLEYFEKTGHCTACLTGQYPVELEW
UniProt Q06203, residues 12-517: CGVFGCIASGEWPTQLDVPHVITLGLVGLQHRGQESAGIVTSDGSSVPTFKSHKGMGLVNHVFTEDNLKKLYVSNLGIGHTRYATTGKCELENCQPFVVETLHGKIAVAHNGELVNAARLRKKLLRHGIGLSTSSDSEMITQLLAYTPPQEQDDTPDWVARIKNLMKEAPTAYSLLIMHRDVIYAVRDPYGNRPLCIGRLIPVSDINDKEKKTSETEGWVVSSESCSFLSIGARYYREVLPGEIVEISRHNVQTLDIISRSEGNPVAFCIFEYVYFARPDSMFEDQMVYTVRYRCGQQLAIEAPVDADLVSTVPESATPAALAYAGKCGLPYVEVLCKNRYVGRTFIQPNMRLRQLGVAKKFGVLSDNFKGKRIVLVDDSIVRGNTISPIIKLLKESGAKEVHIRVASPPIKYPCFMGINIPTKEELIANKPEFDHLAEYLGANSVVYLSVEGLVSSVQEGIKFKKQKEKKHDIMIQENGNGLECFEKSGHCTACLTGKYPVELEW
UniProt Q9JKX6: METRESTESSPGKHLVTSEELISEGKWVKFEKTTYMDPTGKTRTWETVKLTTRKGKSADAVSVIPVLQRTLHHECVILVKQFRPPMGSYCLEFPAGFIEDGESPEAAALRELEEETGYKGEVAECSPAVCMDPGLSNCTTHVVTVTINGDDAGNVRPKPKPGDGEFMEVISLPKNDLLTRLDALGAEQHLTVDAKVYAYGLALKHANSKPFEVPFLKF

How the values were obtained:
[1] = target: PPAT (endogenous, mouse) (mouse (endogenous in organs of C57BL/6J mice)) (UniProt Q8CIH9); experiment: condition: only with 10 mM PRPP in the lysis buffer; native gel or EMSA; parallel native PAGE of mouse organ homogenates with 10 mM PRPP added, 1–16 h at 4 °C, immunoblot for NUDT5 and PPAT
[2] = target: PPAT (endogenous, human) (human (endogenous in 293T, K562 and other human cell lines)) (UniProt Q06203); experiment: native gel or EMSA; parallel native PAGE (4–16% gel) of human cell lysates in 1× Native Buffer with 1% digitonin, immunoblot for NUDT5 and PPAT; K562 (wild type, NUDT5 KO clones, KO clones with cDNA complementation) and other cell lines; untreated

Row | Substance | binding [1] | binding [2]
1 | NUDT5 (endogenous, mouse) (from UniProt Q9JKX6 1-218) (enzyme) | no binding | –
2 | PPAT (endogenous, human) (from UniProt Q06203 12-517) (enzyme; other documents disagree on this pair) | – | binds
